Binding data for two substances are collected here from PMC7910580.

Sequences of proteins named here, by UniProt entry; tags and fusion partners are left off. A change or cut given only in a name is not applied to a line headed by its entry.
UniProt Q8NEB9: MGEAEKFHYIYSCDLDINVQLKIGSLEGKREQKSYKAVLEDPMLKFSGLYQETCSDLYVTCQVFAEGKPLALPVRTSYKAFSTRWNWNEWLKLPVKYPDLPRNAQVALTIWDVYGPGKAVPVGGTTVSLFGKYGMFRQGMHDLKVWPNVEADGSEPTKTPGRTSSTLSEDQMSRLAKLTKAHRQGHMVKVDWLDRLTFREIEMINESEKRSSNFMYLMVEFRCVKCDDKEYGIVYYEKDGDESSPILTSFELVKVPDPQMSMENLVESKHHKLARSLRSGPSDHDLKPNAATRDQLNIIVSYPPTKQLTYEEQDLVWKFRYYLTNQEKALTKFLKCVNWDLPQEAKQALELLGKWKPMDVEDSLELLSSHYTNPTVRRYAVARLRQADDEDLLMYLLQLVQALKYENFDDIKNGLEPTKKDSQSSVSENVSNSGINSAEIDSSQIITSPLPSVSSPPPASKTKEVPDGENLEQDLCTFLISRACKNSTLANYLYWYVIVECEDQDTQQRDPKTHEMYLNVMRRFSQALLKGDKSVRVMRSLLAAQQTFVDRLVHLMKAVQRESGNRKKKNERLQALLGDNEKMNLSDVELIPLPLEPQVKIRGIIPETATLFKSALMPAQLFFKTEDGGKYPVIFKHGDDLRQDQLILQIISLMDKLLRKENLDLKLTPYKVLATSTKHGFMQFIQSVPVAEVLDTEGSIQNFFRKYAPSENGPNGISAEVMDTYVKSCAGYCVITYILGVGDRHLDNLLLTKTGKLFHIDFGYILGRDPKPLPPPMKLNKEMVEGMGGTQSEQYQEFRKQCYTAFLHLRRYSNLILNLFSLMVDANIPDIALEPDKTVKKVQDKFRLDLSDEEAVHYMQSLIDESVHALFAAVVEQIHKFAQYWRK
UniProt Q15386: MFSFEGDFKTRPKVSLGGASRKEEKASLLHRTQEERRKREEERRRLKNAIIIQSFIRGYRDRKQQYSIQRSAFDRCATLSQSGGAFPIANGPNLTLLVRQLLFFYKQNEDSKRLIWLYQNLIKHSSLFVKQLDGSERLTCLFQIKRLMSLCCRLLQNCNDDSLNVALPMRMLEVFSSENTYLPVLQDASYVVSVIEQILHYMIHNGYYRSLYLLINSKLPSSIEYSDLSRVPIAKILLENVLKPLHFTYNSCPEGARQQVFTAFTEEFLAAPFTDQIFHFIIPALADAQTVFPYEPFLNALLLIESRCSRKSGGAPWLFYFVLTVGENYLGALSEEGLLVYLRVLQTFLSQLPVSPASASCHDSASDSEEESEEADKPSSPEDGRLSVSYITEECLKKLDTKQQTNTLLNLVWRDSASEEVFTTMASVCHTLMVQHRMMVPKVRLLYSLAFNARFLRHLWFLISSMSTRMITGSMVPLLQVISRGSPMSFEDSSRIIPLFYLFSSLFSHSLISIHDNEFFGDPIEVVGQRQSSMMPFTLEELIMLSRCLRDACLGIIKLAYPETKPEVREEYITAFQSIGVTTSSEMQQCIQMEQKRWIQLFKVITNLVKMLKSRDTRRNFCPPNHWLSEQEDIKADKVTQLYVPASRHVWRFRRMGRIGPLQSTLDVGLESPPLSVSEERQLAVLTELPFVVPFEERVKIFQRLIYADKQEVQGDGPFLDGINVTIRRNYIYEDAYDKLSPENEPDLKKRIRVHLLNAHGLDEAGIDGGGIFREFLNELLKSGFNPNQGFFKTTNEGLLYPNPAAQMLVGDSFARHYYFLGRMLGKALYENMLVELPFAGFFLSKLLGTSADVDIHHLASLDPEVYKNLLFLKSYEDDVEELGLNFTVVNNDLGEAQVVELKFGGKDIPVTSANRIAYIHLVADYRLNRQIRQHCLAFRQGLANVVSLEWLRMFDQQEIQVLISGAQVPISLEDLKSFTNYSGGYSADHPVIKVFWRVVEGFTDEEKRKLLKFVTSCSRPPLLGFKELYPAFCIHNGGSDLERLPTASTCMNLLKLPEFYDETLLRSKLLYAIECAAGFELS

One assay has as its target Flag-VPS34 (baculovirus) (UniProt Q8NEB9). Put plainly: pull-down; Flag-VPS34 immobilized on anti-Flag M2 beads, incubated with purified HA-UBE3C for 30 min in 50 mM Tris pH 7.5, 150 mM NaCl, 1% NP40; western blot; both purified. A general note: Immunoblotting shows a protein as a band on a membrane.
The target of assay [1] is VPS34 (endogenous) (human (endogenous in 293T)) (UniProt Q8NEB9). Put plainly: co-IP; endogenous proteins in 293T lysates, antibodies and protein A Sepharose; cells untreated, starved (EBSS) or treated for 30 min with thapsigargin, tunicamycin, MG132, 17-DMAG, 17-AAG or puromycin.

Results are given in words; binding and its absence hold for the method and conditions named. For some assays here: Binding seen in cells or lysates may run through a third protein. Some entries that bind do so weakly or less than the wild type.

As to “HA-UBE3C (from UniProt Q15386-1 1-1083) (enzyme)”, the binding entry in the assay with Flag-VPS34 (baculovirus) is “binds”.
For “UBE3C (endogenous) (from UniProt Q15386 1-1083) (enzyme)”, the binding result in assay [1] was “binds”.
